# The list does not hold the whole screen: it gathers tests that were run many times, whatever their T/C, doses with no T/C, and many T/C values between a quarter and a half above the control. Further doses and runs are listed elsewhere. T/C gives the treated animals as a percentage of the vehicle group. Some doses have a count of surviving animals in place of a T/C: the source holds a T/C of zero for them, seemingly a mark for toxic or unscored doses. Some survivor counts are full or nearly so, which does not show that the dose was tolerated: the source hardly ever lists a survival T/C far under the control, and the zero likely stands for such cases as well. Survivors were counted at the toxicity check, usually on the fifth day, unless a day is given; later deaths do not show. Schedules are NCI's codes, taken here to give the interval after Q, in days (D) or hours (H), and the number of doses after X. Some entries were tested several times; the results are listed from low to high. Where survival is the endpoint, the PubChem record calls one and a half times the control and up active, and a quarter to a half above the control has no call in these data; cut-offs in other NCI protocols can differ. Some T/C values are followed by the survivors on the day toxicity was checked, most often the fifth; where none is given, no animal had died by that day. Marks such as (2×) stand for listed records that agree.
# Tested on: L1210 leukemia ip in BDF1 mice, survival T/C
# Assay: NCI In Vivo Anticancer Drug Screen. Data for tumor model L1210 Leukemia (intraperitoneal) in B6D2F1 (BDF1) mice
# Conditions: T/C endpoint: mean survival time, higher T/C = longer survival
# [1] = dose: 400.0 mg/kg/injection, schedule: Q04DX002 (ip), vehicle: saline
# [2] = dose: 200.0 mg/kg/injection, schedule: Q04DX002 (ip), vehicle: Klucel (hydroxypropylcellulose) (HPC)
# [3] = dose: 400.0 mg/kg/injection, schedule: Q04DX002 (ip), vehicle: Klucel (hydroxypropylcellulose) (HPC)
# [4] = dose: 100.0 mg/kg/injection, schedule: Q01DX009 (ip), vehicle: Klucel (hydroxypropylcellulose) (HPC)
# [5] = dose: 200.0 mg/kg/injection, schedule: Q01DX009 (ip), vehicle: Klucel (hydroxypropylcellulose) (HPC)
# [6] = dose: 400.0 mg/kg/injection, schedule: Q01DX009 (ip), vehicle: Klucel (hydroxypropylcellulose) (HPC)
# [7] = dose: 300.0 mg/kg/injection, schedule: Q01DX001 (ip), vehicle: saline
# [8] = dose: 80.0 mg/kg/injection, schedule: Q01DX001 (ip), vehicle: saline
# [9] = dose: 100.0 mg/kg/injection, schedule: Q04DX002 (ip), vehicle: Klucel (hydroxypropylcellulose) (HPC)
smiles,measurement,setting,value
C=CCP(c1ccccc1)c1ccccc1,survivor count,[1],0 of 3
CCCCCCCOC(C[N+](=O)[O-])C(Cl)(Cl)Cl (stereo not drawn),survivor count,"dose: 100.0 mg/kg/injection, schedule: Q01DX009 (ip), vehicle: acetone",2 of 6
same,survivor count,"dose: 200.0 mg/kg/injection, schedule: Q04DX003 (ip), vehicle: acetone",3 of 6
same,survivor count,"dose: 400.0 mg/kg/injection, schedule: Q04DX003 (ip), vehicle: acetone",0 of 6
NC(N)=N/C(N)=N/Nc1ccc([N+](=O)[O-])cc1[N+](=O)[O-],survivor count,"dose: 50.0 mg/kg/injection, schedule: Q04DX002 (ip), vehicle: saline with Tween-80",1 of 6
same,survivor count,"dose: 200.0 mg/kg/injection, schedule: Q04DX002 (ip), vehicle: saline with Tween-80",1 of 3
same,survivor count,"dose: 400.0 mg/kg/injection, schedule: Q04DX002 (ip), vehicle: saline with Tween-80",0 of 3
COC(=O)NS(=O)(=O)OC,survivor count,[1],1 of 3
O=C1C=CC(=O)N1c1ccc([N+](=O)[O-])cc1,survivor count,"dose: 12.5 mg/kg/injection, schedule: Q04DX003 (ip), vehicle: Klucel (hydroxypropylcellulose) (HPC)",6 of 6
same,survivor count,"dose: 25.0 mg/kg/injection, schedule: Q04DX003 (ip), vehicle: Klucel (hydroxypropylcellulose) (HPC)",1 of 6
same,survivor count,"dose: 29.0 mg/kg/injection, schedule: Q01DX009 (ip), vehicle: Klucel (hydroxypropylcellulose) (HPC)",0 of 6
same,survivor count,"dose: 45.0 mg/kg/injection, schedule: Q01DX009 (ip), vehicle: Klucel (hydroxypropylcellulose) (HPC)",0 of 6
same,survivor count,"dose: 65.0 mg/kg/injection, schedule: Q01DX009 (ip), vehicle: Klucel (hydroxypropylcellulose) (HPC)",0 of 6
O=c1[nH]ncc2c1[nH]c1cccc(Cl)c12,survivor count,"dose: 100.0 mg/kg/injection, schedule: Q04DX003 (ip), vehicle: carboxymethylcellulose (CMC)",6 of 6
O=C1OC(c2cccc(Cl)c2)=N/C1=C\c1ccccc1,survivor count,[2],3 of 3
[Cl][Pd][Cl].[NH-]C(c1ccccc1)C([NH-])c1ccccc1 (stereo not drawn),survivor count,[3],3 of 3
Cc1nc(N)[nH]c(=O)c1CCCC#N,T/C,[4],"98, 103, 110, 111 % of control"
same,T/C,[5],"89 [5 of 6 alive], 90, 99 % of control (2×)"
same,T/C,[6],"87 [2 of 3 alive], 95 [2 of 3 alive], 125 % of control [4 of 6 alive]"
same,survivor count,[6],4 of 6
same,survivor count,"dose: 400.0 mg/kg/injection, schedule: Q04DX003 (ip), vehicle: Klucel (hydroxypropylcellulose) (HPC)",5 of 6
CCN(CC)CCOC(=O)C(c1ccccc1)C1C=CCCC1 (stereo not drawn),survivor count,[7],0 of 6
Nc1ncnc2c1c(I)cn2C1OC(CO)C(O)C1O (stereo not drawn),survivor count,[8],0 of 6
CN1CCN(CCCN2c3ccccc3Sc3ccc(Cl)cc32)CC1,survivor count,[3],1 of 3
CCOC(=O)N/N=C(\C)c1ccc(OC)cc1,survivor count,[6],5 of 6
COc1ccc(C(=O)C=C(C(F)(F)F)C(F)(F)F)cc1,survivor count,"dose: 200.0 mg/kg/injection, schedule: Q04DX003 (ip), vehicle: saline with Tween-80",6 of 6
same,survivor count,"dose: 400.0 mg/kg/injection, schedule: Q04DX003 (ip), vehicle: saline with Tween-80",3 of 6
O=C(O)c1cccc(N2C(=O)C=CC2=O)c1,survivor count,[9],1 of 3 and 2 of 3
same,survivor count,[2],1 of 3
same,survivor count,[3],0 of 3
COC(=O)C1=C(C(=O)OC)C2(C)OC1C1OC12 (stereo not drawn),survivor count,"dose: 50.0 mg/kg/injection, schedule: Q01DX009 (ip), vehicle: Klucel (hydroxypropylcellulose) (HPC)",0 of 6
same,survivor count,[4],0 of 6
same,survivor count,[5],0 of 6
same,survivor count,[6],0 of 6
O=C(c1ccc(O)cc1)c1c[nH]c2c(O)ccc(O)c12,survivor count,"dose: 100.0 mg/kg/injection, schedule: Q04DX002 (ip), vehicle: saline + alcohol",3 of 3
O=c1ccc2ccccc2[nH]1.[Mn],survivor count,"dose: 80.0 mg/kg/injection, schedule: Q01DX001 (ip), vehicle: carboxymethylcellulose (CMC)",0 of 4
same,survivor count,"dose: 100.0 mg/kg/injection, schedule: Q01DX001 (ip), vehicle: carboxymethylcellulose (CMC)",0 of 6
same,survivor count,"dose: 200.0 mg/kg/injection, schedule: Q01DX001 (ip), vehicle: carboxymethylcellulose (CMC)",1 of 6
same,survivor count,"dose: 400.0 mg/kg/injection, schedule: Q01DX001 (ip), vehicle: carboxymethylcellulose (CMC)",0 of 6
CC[C@@]1(O)C(=O)OCc2c1cc1n(c2=O)Cc2cc3cc(OC)ccc3nc2-1,T/C,"dose: 1.25 mg/kg/injection, schedule: Q01DX001 (ip), vehicle: saline",137 % of control
same,survivor count,"dose: 3.3 mg/kg/injection, schedule: Q01DX009 (ip), vehicle: saline",6 of 6
same,survivor count,"dose: 30.0 mg/kg/injection, schedule: Q01DX001 (ip), vehicle: saline",2 of 4
same,survivor count,"dose: 45.0 mg/kg/injection, schedule: Q01DX001 (ip), vehicle: saline",1 of 4
same,survivor count,"dose: 65.0 mg/kg/injection, schedule: Q01DX001 (ip), vehicle: saline",2 of 4
same,T/C,"dose: 191.0 micrograms/kg/injection, schedule: Q01DX009 (ip), vehicle: saline",125 and 141 % of control
same,T/C,"dose: 287.0 micrograms/kg/injection, schedule: Q01DX009 (ip), vehicle: saline",131 % of control
same,T/C,"dose: 430.0 micrograms/kg/injection, schedule: Q01DX009 (ip), vehicle: saline",138 % of control
same,T/C,"dose: 646.0 micrograms/kg/injection, schedule: Q01DX009 (ip), vehicle: saline",131 % of control
CCOc1ccc(NC(=O)C(C(C)N2CCCCC2)N2CCCCC2)cc1 (stereo not drawn),survivor count,"dose: 75.0 mg/kg/injection, schedule: Q01DX009 (ip), vehicle: saline",1 of 6
same,survivor count,"dose: 115.0 mg/kg/injection, schedule: Q01DX009 (ip), vehicle: saline",1 of 6
same,survivor count,"dose: 170.0 mg/kg/injection, schedule: Q01DX009 (ip), vehicle: saline",0 of 6
CCCCCCCNC(C)=O,survivor count,"dose: 100.0 mg/kg/injection, schedule: Q01DX009 (ip), vehicle: saline",2 of 6
same,survivor count,"dose: 200.0 mg/kg/injection, schedule: Q01DX001 (ip), vehicle: saline with Tween-80",0 of 6
same,survivor count,"dose: 400.0 mg/kg/injection, schedule: Q01DX001 (ip), vehicle: saline with Tween-80",0 of 6
Fc1ccccc1N=C=S,survivor count,"dose: 300.0 mg/kg/injection, schedule: Q01DX001 (ip), vehicle: other",0 of 6
Cc1cccc(Cl)c1NC(=O)c1cc([N+](=O)[O-])cc([N+](=O)[O-])c1,survivor count,[6],6 of 6
CC(C)(C)c1ccc2oc(-c3ccc(-c4nc5cc(C(C)(C)C)ccc5o4)s3)nc2c1,survivor count,"dose: 400.0 mg/kg/injection, schedule: Q04DX003 (ip), vehicle: gum acacia",6 of 6
CCCCOP(=S)(OCCCC)[S][Hg][c]1ccco1,survivor count,"dose: 100.0 mg/kg/injection, schedule: Q04DX002 (ip), vehicle: alcohol",1 of 3 and 2 of 3
same,survivor count,"dose: 200.0 mg/kg/injection, schedule: Q04DX002 (ip), vehicle: alcohol",2 of 3
same,survivor count,"dose: 400.0 mg/kg/injection, schedule: Q04DX002 (ip), vehicle: alcohol",0 of 3
CCCCOC(=O)Oc1ccc(C(=O)Oc2ccc(OCC)cc2)cc1,survivor count,[6],6 of 6
CCCC(C)OS(=O)(=O)c1ccc(N)cc1 (stereo not drawn),survivor count,[6],5 of 6
NC(CSS(=O)(=O)O)=NCCc1ccccn1,survivor count,[9],3 of 3
same,survivor count,[2],3 of 3
CCOP(=O)(OCC)Oc1cc(C)c(SC)c(C)c1,survivor count,[7],0 of 6
CCC1(/C(C)=C/C(C)C)C(=O)NC(=O)NC1=O,survivor count,"dose: 20.0 mg/kg/injection, schedule: Q01DX001 (ip), vehicle: saline",2 of 6
same,survivor count,"dose: 40.0 mg/kg/injection, schedule: Q01DX001 (ip), vehicle: saline",0 of 6
same,survivor count,[8],0 of 6

# Source: PubChem BioAssay AID248 (DTP/NCI, 2004)
